{"source": "patent US20100015603A1", "about": "“Chimeric proteins for measuring atp concentrations in pericellular space and related screening method” (priority 2005, published 2010)", "system": "HEK293-pmeLUC cells", "format": "cell-based", "conditions": "not shown", "method": "HEK293 cells were cultured in DMEM-F12 (Sigma-Aldrich). Media were supplemented with 10% heat-inactivated FBS, 100 U/ml penicillin and 100 μg/ml streptomycin (Invitrogen corporation, San Giuliano Milanese, Italy). ACN neuroblastoma cells were cultured in DMEM supplemented with MEM non-essential amino acid solution 100× (Sigma-Aldrich). HEK293 cells were transfected with the calcium phosphate method. Cells transiently expressing the pmeLUC construct were assayed 36 hours after transfection. Clones stably expressing pmeLUC or the P2X7R were generated by culture of the transfected cells in the presence of G418 (0.8 mg/ml, added 48 hours after transfection) for 3 weeks. Stable P2X7- or pmeLUC-expressing clones were kept in the continuous presence of 0.2 mg/ml of G418 sulphate (Geneticin) (Calbiochem, la Jolla, Calif.). ACN cells were transfected with pmeLUC by lipofectamine (Invitrogen) and tested 24 hours after transfection. […]\nATP was measured in the custom-made luminometer described by Rizzuto and co-workers (Brini et al., 1999; Jouaville et al., 1999). […] Light emission was detected by a Thorn EMI photon counting board installed in an IBM-compatible computer. […] Alternatively, ATP was measured in the supernatants using soluble luciferase in a Firezyme luminometer as previously described (Baricordi et al., 1999; Solini et al, 2004; Zanovello et al., 1990).", "note": "At least one structure is not confirmed: it was looked up by name or label, or the drawing left a doubt. Peptide text beside a SMILES is read from it.", "data": [{"smiles": "NC(N)=NCCC[C@H](NC(=O)[C@H](Cc1ccccc1)NC(=O)[C@@H]1CCCN1C(=O)[C@H](CO)NC(=O)[C@H](Cc1ccccc1)NC(=O)CNC(=O)[C@@H]1CCCN1C(=O)[C@@H]1CCCN1C(=O)[C@@H](N)CCCN=C(N)N)C(=O)O", "note": "[bradykinin] (H-RPPGFSPFR-OH)", "values": [{"measurement": "ATP release triggered by agonists of G protein-coupled receptors", "value": "negligible ATP release"}]}]}
